# According to PubChem BioAssay AID2685 (National Center for Advancing Translational Sciences (NCATS), 2010):
# The campaign covered roughly 320,000 compounds. About 2,100 (0.66%) were called active. The inconclusive results got no clear call from the source; some entries with a clear call stand among them for comparison. Calls come from the whole dose curve; as a rule, active = well fitted inhibition curve with a large enough effect in the signal ratio, with a control signal flat (not every such curve was filed as active); inconclusive = small, poorly fitted or top-dose-only effect, or effect the other way, or a change in a side signal; inactive = flat fitted curve, though single readings scatter; the % refers to the signal ratio. Where the call is inconclusive, the potency comes from a doubtful curve fit.
# Assay: qHTS Assay for Lipid Storage Modulators in Drosophila S3 Cells
# Details: BODIPY lipid droplet fluorescence, 18-24 h, cells fed with added oleic acid; lipid storage change, negative = inhibition: at 46.1 µM (top of the series) unless noted
# How it was run: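 Laser-scanning cytometry quantifies lipid droplet accumulation (500–530 nm total intensity; droplet/cell object ratio) in oleic acid-fed (400 uM added) Drosophila S3 cells treated with a concentration series. 20 uM Triacsin C defined 100% inhibition.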
# % is set by controls: 0 for no effect and ±100 for the full control effect; potency is the fitted concentration of half-maximal effect.
Compound,"lipid storage change, negative = inhibition",Potency
Cc1ccc2c(CC(=O)N(C)c3c(N)n(Cc4ccccc4)c(=O)[nH]c3=O)coc2c1,inconclusive: -17.7%,–
O=C(COc1ccccc1)NC(=S)Nc1cccc([N+](=O)[O-])c1,inconclusive: 50%,–
C[C@@H]([C@@H](O)c1ccccc1)N(C)C(=O)C(N)Cc1ccccc1 (stereo partly drawn),inconclusive: 44.7%,–
Cc1ccc(C2CC(c3ccccc3Cl)n3nc(N)nc3N2)cc1 (stereo not drawn),inconclusive: -8.8% [at 9.22 µM],–
Cc1cc(NC(=O)c2ccccc2C)ccc1NC(=O)c1ccccc1Cl,–,"inconclusive: 1.84 µM [activator, full curve]"
O=C(NCCNS(=O)(=O)c1ccccc1Cl)c1cc(OCC(F)(F)F)ccc1OCC(F)(F)F,–,"inconclusive: 16.4 µM [falling, partial curve, poor fit]"
CCN(CC(=O)NCc1cccs1)C(=O)c1cccc(S(=O)(=O)Nc2cccc(C)c2)c1,–,"inconclusive: 23.1 µM [falling, partial curve, poor fit]"
CN(C)C(=O)c1ccc(NC(=O)c2cccc(S(=O)(=O)N3CCCCCC3)c2)cc1,inconclusive: -0.411%,–
CCOC(=O)C1CCCN(C(=O)COc2ccc(C(=O)c3ccccc3)cc2)C1 (stereo not drawn),inconclusive,–
Cc1ccc(S(=O)(=O)C(C#N)c2nc3ccccc3nc2N2CCC(C)CC2)cc1 (stereo not drawn),–,"inconclusive: 0.291 µM [activator, full curve, poor fit]"
COc1ccc(NC(=O)CSc2nc3[nH]c(=O)cc(O)c3s2)c(OC)c1,inconclusive: -10.2%,–
CCC1Oc2ccccc2N(CC(=O)NC2CCCC2)C1=O (stereo not drawn),–,"inconclusive: 18.4 µM [activator, partial curve]"
O=C(CCCNS(=O)(=O)c1ccccc1)NCc1ccco1,–,"inconclusive: 25.9 µM [cytotoxic, partial curve, poor fit]"
COc1cccc(CN2CC(C(=O)NCCOc3ccccc3)CCC2=O)c1 (stereo not drawn),inconclusive: 1.62%,–
Nc1cc(N)nc(SCC(=O)c2ccc3c(c2)NC(=O)CO3)n1,inconclusive: 13.5%,–
Cc1cc(C)cc(C(=O)N2CCN=C2c2ccccc2)c1,inconclusive: 26.2%,–
O=S(=O)(c1ccc(Br)s1)N1CCCCC1,inconclusive: -31.7%,–
CCOC(=O)c1c(COc2ccccc2)oc2ccc(O)cc12,inconclusive: -50.5%,–
CC1=NOC(=O)/C1=C\c1ccc2c(c1)OCO2,inconclusive: -25.8%,–
CCN(CCn1cccn1)C(=O)CC1C(=O)NCCN1Cc1ccc(OC)c(OC)c1 (stereo not drawn),inconclusive: 3.66%,–
CN(c1ccccc1)S(=O)(=O)c1cccc(C(=O)NC2CC(C)(C)NC(C)(C)C2)c1,inconclusive: 13.5%,–
O=C(/C=C\c1ccc2c(c1)OCO2)CC1(O)C(=O)Nc2ccccc21 (stereo not drawn),inactive,–
O=C(NCc1cccc(C(F)(F)F)c1)c1ccc2c(c1)OCO2,–,"inconclusive: 23.1 µM [falling, single point]"
C=CC[N+](C)(C)c1ccc(CCC(=O)CCc2ccc([N+](C)(C)CC=C)cc2)cc1,inconclusive: 8.59%,–

Compound,"lipid storage change, negative = inhibition",Potency
CC(C)C(=O)NC(c1ccc([N+](=O)[O-])cc1)c1c(O)ccc2ccccc12 (stereo not drawn),inconclusive: -16.5%,–
Nc1c(C(=O)NCc2ccccc2)nnn1Cc1cccc(Cl)c1,–,"inconclusive: 20.6 µM [activator, single point]"
COc1ccccc1NC(=O)C(C)OC(=O)/C=C/c1ccc2ccccc2n1 (stereo not drawn),–,"inconclusive: 2.06 µM [falling, partial curve, poor fit]"
Cc1ccc(NC(=O)CN2C(=O)CC(C)S(=O)(=O)c3ccccc32)cc1 (stereo not drawn),inconclusive: 338%,–
CCc1ccc(NC(=O)CS(=O)CC(=O)Nc2ccc(-n3cnnn3)c(C)c2)cc1 (stereo not drawn),–,"inconclusive: 13 µM [activator, partial curve]"
CC1CCC(NC(=O)Cn2c(=O)[nH]c3ccsc3c2=O)CC1 (stereo not drawn),–,"inconclusive: 0.517 µM [activator, single point]"
Cc1ccc(NC(=O)Cn2ccsc2=N)c([N+](=O)[O-])c1,inconclusive: 5.39%,–
CCO[C@@H]1OC(C(=O)N2CCCCCCC2)=C[C@H](c2csc3ccccc23)[C@H]1CCCO,inconclusive: -34.2%,–
COCCNC(=O)C1CCC(CNS(=O)(=O)c2cccc3nsnc23)CC1 (stereo not drawn),inconclusive: 38.3%,–
COc1ccccc1N1CCN(C(=O)c2ccc3[nH]c4c(c3c2)CCCC4)CC1,–,"inconclusive: 29.1 µM [falling, single point]"
O=C(CSCc1ccccc1)NNC(=S)Nc1cccc(Cl)c1Cl,inconclusive: 36%,–
Cc1cc(C(=O)N2CCN(c3ncccn3)CC2)c(C)o1,inconclusive: 0.0215%,–
Cc1ccnc2c(N3C(=O)C4C5c6ccccc6C(c6ccccc65)C4C3=O)cccc12 (stereo not drawn),inconclusive: -13.8%,–
Cc1c(C(=O)OCCN2CCCCC2)oc2ccccc12,inconclusive: -38.3%,–
COc1ccc(OCc2ccc(-c3nc4ccccc4c(=O)n3N)o2)cc1,inconclusive: 18.4%,–
O=C(N/N=C/c1cccc(NC(=O)c2ccc(Cl)cc2)c1)c1ccc(O)cc1,inconclusive: 63.8%,–
Cc1cc2oc(=O)sc2cc1NS(=O)(=O)c1ccccc1,–,active: 7.31 µM
COc1ccc(-c2nc3cc(C)ccn3c2NCc2ccc3c(c2)OCO3)cc1,inconclusive: -20.3%,–
CC1=C(C(=O)Nc2ccc(C(=O)NCCC(C)C)cc2)SCCO1,inconclusive: 23.1%,–
CC(=O)c1cn(N(C)c2ncc(C(F)(F)F)cc2Cl)c(=O)[nH]c1=O,inconclusive: -24.6%,–
S=C(Nc1ccc(Cl)c(Cl)c1)N1CCCC1,inconclusive: -21.7%,–
CC1CC(C)CN(CCCNC(=O)c2ccc3c(c2)ncn3C2CCCC2)C1 (stereo not drawn),–,"inconclusive: 0.13 µM [falling, full curve, poor fit]"
O=C(Nc1nc(-c2cc(F)ccc2F)cs1)c1cccc(N2C(=O)CCC2=O)c1,–,"inconclusive: 29.1 µM [falling, single point]"
COc1ccc(/C=N\NC(=O)c2ccccc2Br)cc1COc1c(F)c(F)cc(F)c1F,inconclusive: 14.8%,–

# A different layout for 4 compounds above:
Compound | lipid storage change, negative = inhibition | Potency
CCOC(=O)C1CCCN(C(=O)COc2ccc(C(=O)c3ccccc3)cc2)C1 (stereo not drawn) | inconclusive | –
Cc1ccc(S(=O)(=O)C(C#N)c2nc3ccccc3nc2N2CCC(C)CC2)cc1 (stereo not drawn) | – | inconclusive: 0.291 µM [activator, full curve, poor fit]
COc1ccc(NC(=O)CSc2nc3[nH]c(=O)cc(O)c3s2)c(OC)c1 | inconclusive: -10.2% | –
CCC1Oc2ccccc2N(CC(=O)NC2CCCC2)C1=O (stereo not drawn) | – | inconclusive: 18.4 µM [activator, partial curve]
